Test results taken from patent US20110076272A1, “THERAPEUTIC METHODS AND COMPOSITIONS” (priority 2009, published 2011).
These are yes or no findings as the source states them, for the method shown. Some entries that bind do so weakly or less than the wild type.

Chains of the proteins cited; added tags and fusions are not shown. Residues count along the entry.
UniProt P58022, residues 26-776: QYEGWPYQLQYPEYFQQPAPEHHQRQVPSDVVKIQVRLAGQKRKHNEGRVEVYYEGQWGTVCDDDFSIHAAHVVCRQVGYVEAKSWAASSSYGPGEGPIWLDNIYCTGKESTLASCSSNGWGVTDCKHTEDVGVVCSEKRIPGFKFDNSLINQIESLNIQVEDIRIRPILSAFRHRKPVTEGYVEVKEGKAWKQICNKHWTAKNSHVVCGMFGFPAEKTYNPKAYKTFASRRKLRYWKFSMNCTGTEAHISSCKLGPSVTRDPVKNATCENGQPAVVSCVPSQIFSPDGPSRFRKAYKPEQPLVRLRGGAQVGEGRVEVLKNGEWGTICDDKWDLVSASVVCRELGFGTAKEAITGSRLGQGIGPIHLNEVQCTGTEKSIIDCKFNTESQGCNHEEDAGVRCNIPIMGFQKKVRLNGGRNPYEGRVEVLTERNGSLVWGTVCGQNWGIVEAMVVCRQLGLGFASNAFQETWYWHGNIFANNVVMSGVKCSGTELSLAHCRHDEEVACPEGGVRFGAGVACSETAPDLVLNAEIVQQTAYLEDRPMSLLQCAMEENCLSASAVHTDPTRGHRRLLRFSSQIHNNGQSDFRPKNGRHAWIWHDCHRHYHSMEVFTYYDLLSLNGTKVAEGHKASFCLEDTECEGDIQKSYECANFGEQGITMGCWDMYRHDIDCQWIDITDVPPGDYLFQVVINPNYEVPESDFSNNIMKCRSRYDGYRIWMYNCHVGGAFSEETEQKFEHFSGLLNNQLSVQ

Key:
[1] = target: T1, human lysyl oxidase-like 2 (LOXL2) (human, UniProt Q9Y4K0 26-774); test: ELISA, AB0023 titrated on hLOXL2 [Cont. 2) panel n]
T1 sequence (looked up): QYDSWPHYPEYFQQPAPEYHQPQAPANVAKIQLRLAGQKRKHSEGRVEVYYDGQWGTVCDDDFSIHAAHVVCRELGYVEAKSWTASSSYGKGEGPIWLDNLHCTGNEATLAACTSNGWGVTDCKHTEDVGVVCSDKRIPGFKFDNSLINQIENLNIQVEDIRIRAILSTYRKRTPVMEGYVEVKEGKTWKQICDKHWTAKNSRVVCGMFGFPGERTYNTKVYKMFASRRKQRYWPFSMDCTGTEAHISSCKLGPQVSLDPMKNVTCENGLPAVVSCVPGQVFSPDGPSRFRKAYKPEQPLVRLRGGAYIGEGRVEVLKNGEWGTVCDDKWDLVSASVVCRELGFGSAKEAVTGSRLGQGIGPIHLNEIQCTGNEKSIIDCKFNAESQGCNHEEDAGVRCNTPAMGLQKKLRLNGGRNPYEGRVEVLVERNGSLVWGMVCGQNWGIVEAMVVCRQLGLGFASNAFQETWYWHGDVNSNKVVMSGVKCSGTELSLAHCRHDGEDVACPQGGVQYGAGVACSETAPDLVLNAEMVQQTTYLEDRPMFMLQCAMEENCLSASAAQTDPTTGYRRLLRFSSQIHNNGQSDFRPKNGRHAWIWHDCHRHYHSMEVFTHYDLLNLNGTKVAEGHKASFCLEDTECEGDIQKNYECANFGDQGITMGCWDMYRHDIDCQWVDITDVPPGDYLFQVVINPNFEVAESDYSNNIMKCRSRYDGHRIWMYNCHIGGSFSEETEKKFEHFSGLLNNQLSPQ

mouse LOXL2 (mouse) [2] = target: mouse LOXL2 (mouse) (UniProt P58022); test: ELISA, AB0023 titrated on mouse LOXL2 [Cont. 3) panel p]
[3] = target: T1, human lysyl oxidase-like 2 (LOXL2); test: Western blot and ELISA (FIG. 8, Panels m, n)
mouse LOXL2 (mouse) [4] = target: mouse LOXL2 (mouse) (UniProt P58022); test: method not named (FIG. 8, Panel p)
[5] = target: T1, human lysyl oxidase-like 2 (LOXL2); test: ELISA, AB0023 titrated on human LOXL2 [Cont. 3) panel p]
[6] = target: T1, human lysyl oxidase-like 2 (LOXL2); test: immunofluorescence of HS578t cells after non-targeting or LOXL2 siRNA [Cont. 1) panels e, f]
[7] = target: T1, human lysyl oxidase-like 2 (LOXL2); test: immunofluorescence on Hs578t tumor cell cultures
[8] = target: T1, human lysyl oxidase-like 2 (LOXL2); test: binding curve, method not named (FIG. 8, panel P)
mouse LOXL2 (mouse) [9] = target: mouse LOXL2 (mouse) (UniProt P58022); test: binding curve, method not named (FIG. 8, panel P)
[10] = target: T1, human lysyl oxidase-like 2 (LOXL2); test: immunofluorescence of Hs578t cultures, LOXL2 in the extracellular matrix
[11] = target: T1, human lysyl oxidase-like 2 (LOXL2); test: Western blot of LOX, LOXL1, LOXL2, LOXL3 and LOXL4 probed with AB0023 [Cont. 2) panel m]

Measured: binding

B1: anti-LOXL2 monoclonal antibody AB0023 (antibody, V domains shown)
VH: QVQLQQSGAELVRPGTSVKVSCKASGYAFTYYLIEWVKQRPGQGLEWIGVINPGSGGTNYNEKFKGKATLTADKSSSTAYMQLSSLTSDDSAVYFCARNWMNFDYWGQGTTLTVSS
VL: DIVMTQAAPSVSVTPGESVSISCRSSKSLLHSNGNTYLYWFLQRPGQSPQFLIYRMSNLASGVPDRFSGSGSGTAFTLRISRVEAEDVGVYYCMQHLEYPYTFGGGTKLEIK
notes: Mouse monoclonal antibody from a hybridoma, raised against full-length LOXL2 and purified from ascites; also called mouse anti-human LOXL2 antibody; LOXL2-specific monoclonal antibody
binds: all assays above
